Measurements from article PMC7862700.
Only a part is listed here, and it is no random draw. At the low end of the ranking the order means little.

Target: SPI1 (UniProt P17947)
Experiment: DAPPL (digital affinity profiling via proximity ligation, sequencing)
Conditions: 10 mM Tris-HCl pH 7.5, 50 mM NaCl, 1 mM DTT, 4% glycerol, room temperature, 30 min; GST-TFs on glutathione beads, 16-mer random dsDNA library, 0.1% …; high values mean tight binding; double strand, one strand shown; scale: fold enrichment (6-mer frequency, TF over GST control)

Sequence | binding signal
GTGCCA | 0.884
GCCATA | 0.952
GCAGGG | 0.681
ACTAGT | 0.946
GGGAGC | 0.384
GTTAGT | 0.764
GGAGCT | 0.588
GAGCAG | 0.539
TGTGAG | 0.354
GAAGGG | 0.821
GCGAGA | 0.501
CGGTAC | 0.874
CAGTGC | 0.765
GGTACC | 0.848
TGACAG | 0.982
CGAGGG | 0.731
CAACGG | 0.871
CGAGCC | 0.937
GAGTAA | 0.565
GGATCG | 0.601

Sequence | binding signal
CGTGCC | 0.875
AACCGT | 0.501
TGAGTG | 0.425
AGGGAC | 0.736
CGGTAA | 0.904
ACAGAC | 0.793
AGTGTG | 0.888
CACGGT | 0.859
GTAGTG | 0.79
GCTGTC | 0.886
CCGTTG | 0.798
CAGTGA | 0.345
GGGTCT | 0.937
CGGTCG | 0.402
GTAAGG | 0.713
AGGCGC | 0.54
GGCGCG | 0.656
CAGGAG | 0.23
CACAGG | 0.861
GAGGTA | 0.672

Quoted from the listing.
Value for TGTGAG under binding signal: 0.354
Value for GCTGTC under binding signal: 0.886
